# According to patent publication US6680295B1, “Method and pharmaceutical composition for prevention and treatment of brain damage” (priority 1994, dated 2004):
# Amino acid sequences for entries named in this document (tags omitted). Residues count along the entry.
# UniProt P32215, residues 20-523: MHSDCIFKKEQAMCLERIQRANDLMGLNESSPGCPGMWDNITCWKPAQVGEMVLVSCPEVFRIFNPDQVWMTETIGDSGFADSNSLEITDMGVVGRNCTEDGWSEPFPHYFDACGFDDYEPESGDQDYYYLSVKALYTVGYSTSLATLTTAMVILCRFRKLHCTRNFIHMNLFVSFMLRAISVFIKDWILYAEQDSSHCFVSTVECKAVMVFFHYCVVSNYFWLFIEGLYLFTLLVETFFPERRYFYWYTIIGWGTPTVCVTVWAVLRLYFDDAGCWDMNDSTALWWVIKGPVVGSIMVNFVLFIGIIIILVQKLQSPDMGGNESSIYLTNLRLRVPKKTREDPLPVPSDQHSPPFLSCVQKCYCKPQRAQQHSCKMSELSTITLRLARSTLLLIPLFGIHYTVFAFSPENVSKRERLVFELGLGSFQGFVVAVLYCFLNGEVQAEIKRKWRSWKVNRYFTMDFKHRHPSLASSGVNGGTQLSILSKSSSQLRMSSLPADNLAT
# No constants are given. Whether binding was seen depends on the method and setting. Some entries that bind do so weakly or less than the wild type.
# Target: PACAP receptor (PACAP binding sites) in rat brain membrane preparations (rat) (UniProt P32215)
# Experiment: radioreceptor assay, displacement of 125I-PACAP27 from E18 rat brain membranes
binder,measurement,value
"HSDGIFTDSYSRYRKQMAVKKYLAAVLGKRYKQRVKNK (C-terminal amide (NH2 attached to the C-terminal Lysine)) [Pituitary adenylate cyclase activating polypeptide, complete form with 38 amino acids (PACAP38)]",binding,binds
